PubChem BioAssay AID504804 | Drosophila RNAi Screening Center – 2011

- Test: 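dsRNAs that improve Kc cell survival under doxorubicin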 (primary screen)
- Cell system: Drosophila Kc cells
- Reagent: long dsRNA against Drosophila genes, 0.5 µg dsRNA per well
- Time to read-out: 96 h (48 h knock-down, then 48 h drug)
- Challenge: doxorubicin 5 µg/ml for 48 h, added 48 h after dsRNA
- Measured: 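Luminescent ATP counts per replicate, not normalised, reflecting viable cells after 48 h dsRNA knock-down followed by 48 h of 5 µg/ml doxorubicin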
- Reading the numbers: raw ATP luminescence: higher = more viable cells, protection from doxorubicin
- Rule for the call: 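Active when both duplicate wells lie at least 2 SD above the plate mean and protection is confirmed by rescreening and independent dsRNAs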
The screen tested about 19,000 reagents; shown is a random part of those that have a named target and a result. Over the whole deposit, 47 (0.25%) are marked active. 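Signals are raw, not normalised; exact z-scores behind calls not deposited; actives needed confirmation, so some wells reaching 2 SD are inactive.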 Unmarked entries are inactive. Reagents against one gene are numbered here. Names joined by + are all predicted targets of the reagent. No sequences are given here.

target	reagent	raw ATP luminescence, replicate 1	raw ATP luminescence, replicate 2
CG5577	1	23437	25830
Cpr78Cc	1	53797	56570
sloth2 + sloth1	1	37720	46470
sloth2 + sloth1	2	49480	52900
sprt	1	61073	60843
CG7120	1	70813	82970
CG11275	1	76953	74237
CG6749	1	1.05e5	95580
CG14301	1	72880	47520
CG13045	1	60493	46167
Cp7Fb	1	38640	39300
CG18764	1	49653	59380
Mnr	1	2.87e5	2.69e5
Mnr	2	4.28e5	2.91e5
CG1674	1	52400	55400
c12.2	1	3.27e5	3.33e5
CG15353	1	1.75e5	1.86e5
Gem3	1	71687	54583
CG9663	1	1.04e5	79483
Hsc70-2	1	71080	67880
Mad	1	35853	34647
Ssk	1	42310	21297
CG15760	1	3.30e5	3.16e5
Mt2	1	58087	66783
Adck5	1	70527	84193
Dark	1	69863	74090
Ir100a	1	46090	59900
MED22	1	40670	52210
CG14915	1	44417	87073
Dph2	1	52640	20470
Hsp70Bc	1	54957	45810
CG6012	1	52510	65820
Ice1	1	30870	41903
CtBP	1	42170	20077

2 entries from above, set out differently.
{"target":"CG6012","reagent":1,"raw ATP luminescence, replicate 1":52510,"raw ATP luminescence, replicate 2":65820}
{"target":"Ice1","reagent":1,"raw ATP luminescence, replicate 1":30870,"raw ATP luminescence, replicate 2":41903}
